PubChem BioAssay AID1259405, NCATS, 2018
Test: 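Silenced genes that increase secreted GFP made by CHO cells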 (primary screen). Cell system: Chinese hamster CHO-K1 ovary cells with stable secreted eGFP expression. Reagents: single siRNA against mouse genes, 0.8 pmol siRNA per well (2 µl of 400 nM stock). Time to read-out: 3 days. Detection: 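Percent of the per-plate non-targeting control median for intracellular GFP per well by laser scanning cytometry and for cell viability by ATP luminescence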. Scale: GFP, % of control: higher = more GFP per well, higher productivity; viability (ATP), % of control: higher = more viable cells (more ATP). Call rule: 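Called active when intracellular GFP, relative to negative control, is at or above 120%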.
Here is one part, drawn at random, of about 50,000 reagents. About 4,000 of them (8%) count as active. 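Mouse siRNA library applied to hamster cells; one well for each siRNA.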

The opening 7 records, ahead of the listing:
gene | PubChem SID | GFP, % of control | viability (ATP), % of control | outcome
Parva | SID363572266 | 71.4 | 85.6 | inactive
Parva | SID363574026 | 38.8 | 26.8 | inactive
Sult5a1 | SID363545275 | 103 | 93.1 | inactive
Sult5a1 | SID363548788 | 90.1 | 93.3 | inactive
Sult5a1 | SID363562594 | 91.4 | 74.4 | inactive
Pcdh1 | SID363541752 | 75.7 | 69.7 | inactive
Pcdh1 | SID363553344 | 62.4 | 62.7 | inactive

Results, from the first entry:
gene | PubChem SID | GFP, % of control | viability (ATP), % of control | outcome
Parva | SID363572266 | 71.4 | 85.6 | inactive
Parva | SID363574026 | 38.8 | 26.8 | inactive
Sult5a1 | SID363545275 | 103 | 93.1 | inactive
Sult5a1 | SID363548788 | 90.1 | 93.3 | inactive
Sult5a1 | SID363562594 | 91.4 | 74.4 | inactive
Pcdh1 | SID363541752 | 75.7 | 69.7 | inactive
Pcdh1 | SID363553344 | 62.4 | 62.7 | inactive
Pcdh1 | SID363566668 | 51.7 | 41.7 | inactive
Kctd9 | SID363540238 | 79.2 | 87.8 | inactive
Kctd9 | SID363541990 | 37.1 | 31.3 | inactive
Kctd9 | SID363566906 | 45.5 | 54 | inactive
Mgarp | SID363542485 | 67.1 | 99.9 | inactive
Mgarp | SID363551976 | 34.2 | 46.5 | inactive
Mgarp | SID363559581 | 99.9 | 111 | inactive
Nkd2 | SID363562067 | 69.1 | 66.1 | inactive
Nkd2 | SID363567205 | 15.5 | 27.5 | inactive
Nkd2 | SID363584562 | 107 | 86.2 | inactive
Gnptab | SID363541155 | 103 | 79.9 | inactive
Gnptab | SID363555782 | 66 | 75 | inactive
Gnptab | SID363566071 | 93.8 | 85 | inactive
Xrn1 | SID363569488 | 71.5 | 81.8 | inactive
Xrn1 | SID363577232 | 79.3 | 82.8 | inactive
Xrn1 | SID363578640 | 176 | 110 | active
Igtp | SID363540338 | 81 | 74.6 | inactive
Igtp | SID363542090 | 48.2 | 50.7 | inactive
Igtp | SID363567006 | 90.3 | 76.7 | inactive
Chd6 | SID363545620 | 67.1 | 56.3 | inactive
Chd6 | SID363549133 | 55.6 | 49.7 | inactive
Chd6 | SID363562939 | 46.3 | 71 | inactive
Or6c210 | SID363554726 | 103 | 75 | inactive
Or6c210 | SID363568173 | 68.7 | 77.3 | inactive
Or6c210 | SID363586232 | 92.9 | 82.4 | inactive
Adgre5 | SID363544093 | 70.3 | 57.5 | inactive
Adgre5 | SID363550421 | 43.9 | 65.9 | inactive
Adgre5 | SID363556970 | 74 | 69.8 | inactive
Iah1 | SID363542438 | 92 | 74.6 | inactive
Iah1 | SID363551929 | 82.9 | 54.4 | inactive
Iah1 | SID363559534 | 79.3 | 75.3 | inactive
C130023O10Rik | SID363547173 | 41.1 | 74.8 | inactive
C130023O10Rik | SID363549985 | 70.4 | 81.2 | inactive
C130023O10Rik | SID363588039 | 172 | 119 | active
Cenpt | SID363540021 | 62.9 | 79.2 | inactive
Cenpt | SID363561322 | 20.4 | 15.4 | inactive
Cenpt | SID363564358 | 101 | 81.7 | inactive
Bbs12 | SID363539904 | 88.7 | 82.4 | inactive
Bbs12 | SID363561205 | 78.7 | 56.5 | inactive
Bbs12 | SID363564241 | 98.8 | 77.1 | inactive
Prss59 | SID363547429 | 76.3 | 31.5 | inactive
Prss59 | SID363558198 | 42.3 | 32.4 | inactive
Prss59 | SID363559956 | 70 | 85.7 | inactive
Ott | SID363554626 | 42.4 | 48.1 | inactive
Ott | SID363568073 | 76.1 | 85.4 | inactive
Ott | SID363586132 | 75.6 | 19.6 | inactive
Il12a | SID363541491 | 82.2 | 55.4 | inactive
Il12a | SID363556118 | 48.7 | 58.5 | inactive
Il12a | SID363566407 | 59.3 | 89.2 | inactive
Or3a10 | SID363544441 | 46.1 | 28.9 | inactive
Or3a10 | SID363550769 | 86.4 | 72.9 | inactive
Or3a10 | SID363557318 | 50.1 | 29.6 | inactive
Lhfpl5 | SID363556211 | 69.3 | 54.8 | inactive
Lhfpl5 | SID363586661 | 73.5 | 93 | inactive
Lhfpl5 | SID363588769 | 147 | 135 | active
Garin1b | SID363546982 | 78.6 | 52.6 | inactive
Garin1b | SID363549794 | 58.5 | 62.7 | inactive
Garin1b | SID363587848 | 128 | 107 | active
Zfp646 | SID363573432 | 126 | 67.1 | active
Zfp646 | SID363588671 | 98.6 | 73.5 | inactive
Aldh1a7 | SID363547894 | 73 | 71.5 | inactive
Aldh1a7 | SID363558663 | 66.4 | 82.8 | inactive
Aldh1a7 | SID363560421 | 118 | 113 | inactive
Zdhhc23 | SID363539986 | 109 | 102 | inactive
Zdhhc23 | SID363561287 | 80.4 | 59.2 | inactive
Zdhhc23 | SID363564323 | 92.8 | 84.4 | inactive
Bloc1s1 | SID363555273 | 87.4 | 70.6 | inactive
Bloc1s1 | SID363563934 | 137 | 44.9 | active
Bloc1s1 | SID363587480 | 83.8 | 98.6 | inactive
Ndor1 | SID363572909 | 77.1 | 114 | inactive
Ndor1 | SID363577485 | 96.4 | 73.7 | inactive
Ndor1 | SID363581005 | 79.8 | 70.9 | inactive
Cops7b | SID363550049 | 85.8 | 98.9 | inactive
Cops7b | SID363564558 | 62 | 50.2 | inactive
Cops7b | SID363588103 | 124 | 128 | active
Lamp5 | SID363552188 | 74.3 | 45.5 | inactive
Lamp5 | SID363585324 | 60.8 | 83 | inactive
Lamp5 | SID363585675 | 90.8 | 96.1 | inactive
Racgap1 | SID363569911 | 95.1 | 71.2 | inactive
Racgap1 | SID363576951 | 183 | 89.5 | active
Racgap1 | SID363578359 | 67 | 103 | inactive
AY702102 | SID363556279 | 82.4 | 78.2 | inactive
AY702102 | SID363586729 | 57.1 | 78.5 | inactive
AY702102 | SID363588837 | 41 | 47.1 | inactive
Eno2 | SID363573168 | 117 | 137 | inactive
Eno2 | SID363577744 | 73.2 | 85.8 | inactive
Eno2 | SID363581264 | 46.1 | 50 | inactive
Or4c106 | SID363554424 | 51.8 | 76.9 | inactive
Or4c106 | SID363567871 | 60.3 | 70.1 | inactive
Or4c106 | SID363585228 | 54.2 | 89.5 | inactive
Bambi | SID363546544 | 68.5 | 78.1 | inactive
Bambi | SID363548300 | 81.4 | 78 | inactive
Bambi | SID363560478 | 77.3 | 88 | inactive
Siral2 | SID363542467 | 63.7 | 52.3 | inactive
Siral2 | SID363551958 | 21.9 | 40.9 | inactive
Siral2 | SID363559563 | 80.1 | 97.8 | inactive
Enoph1 | SID363543384 | 64 | 95.8 | inactive
Enoph1 | SID363552877 | 80.4 | 96.2 | inactive
Enoph1 | SID363558725 | 81.3 | 97 | inactive
Or2l13b | SID363544425 | 54.8 | 77.2 | inactive
Or2l13b | SID363550753 | 91.7 | 86.2 | inactive
Or2l13b | SID363557302 | 114 | 78.3 | inactive
